According to patent US20030188756A1, “Treatment of inflammatory bowel disease with vitamin d compounds” (priority 2002, published 2003):

Experiments:
Assay type in all cases: in vivo
[1] = tested on: WT mice; test: 1,25(OH)2D3 supplementation (0.005 μg/d, 4 weeks) of vitamin D deficient WT mice
From the text: MICE. Age and sex matched C57BL/6 IL-10 KO, and wildtype (WT) mice were produced in the Pennsylvania State University breeding colony; the breeding pairs were obtained from Jackson Laboratory (Bar Harbor, Me.). The animal facilities at the Pennsylvania State University are specific pathogen free and therefore breeding IL-10 KO mice was successful. All of the procedures described were reviewed and approved by the Pennsylvania State University Institutional Animal Care and Use Committee on Jan. 25, 1999, IACUC# number: 98118-A0.
DIETS. […]
The 3 week old vitamin D deficient mice were randomly assigned to various treatment groups as described below. […] Symptoms of hypercalcemia monitored daily included overall health and weight loss. […]
SERUM MEASUREMENTS. […] Serum was collected every 2 weeks and serum calcium measured (normal for mice is 2.00-2.75 mmol/L). Vitamin D deficiency was also monitored by serum calcium analysis (serum calcium less then 1.75 mmol/L). […] Red blood cells were counted using a hemocytometer.
IBD SEVERITY. Mortality associated with the development of diarrhea was recorded in IL-10 KO and WT mice. […] Four or more paraffin sections (4 microns) from each mouse were scored using the exact procedure described by Kuhns et. al (1993). The sections were scored blindly on a scale of 0 to 5 for inflammation. […]

[2] = tested on: WT mice; test: Short term (2 weeks, 0.2 μg/d) 1,25(OH)2D3 treatment of WT mice; conditions: 0.2 μg/d 1,25(OH)2D3 for 2 weeks from 7 weeks of age, mean ± SEM
[3] = tested on: WT mice; test: Food restriction experiment, WT mice on cholecalciferol diet (+D restricted); conditions: mean ± SEM
[4] = 5.0 μg/d cholecalciferol for 4 weeks

Row | Compound | Weight ([1]; 0.005 μg/day 1,25(OH)2D3 for 4 weeks, 9 weeks of age, mean ± SEM) [g] | Histology Score ([1]; small intestine inflammation, scale 0 to 5, 0.005 μg/day for 4 weeks) | Small Intestine g [2] [g] | Small Intestine g/100 g body [2] [g/100 g body] | Weight ([3]; 5.0 μg/d cholecalciferol for 4 weeks from 5 weeks of age) [g] | Small Intestine g [3, 4] [g] | Small Intestine g/100 g body [3, 4] [g/100 g body]
1 | C=C1/C(=C\C=C2/CCC[C@]3(C)[C@@H]([C@H](C)CCCC(C)(C)O)CC[C@@H]23)C[C@@H](O)C[C@@H]1O [1,25(OH)2D3, 1,25-dihydroxycholecalciferol] | 21.1 ± 1.0 | 0 | 1.06 ± 0.04 | 5.3 ± 0.2 | – | – | –
2 | C=C1CC[C@H](O)C/C1=C/C=C1\CCC[C@]2(C)[C@@H]([C@H](C)CCCC(C)C)CC[C@@H]12 [cholecalciferol] | – | – | – | – | 15.9 ± 1.1 | 0.85 ± 0.06 | 6.7 ± 0.2
